Structures can show the parent of a compound that is named as a salt. Some of the results follow. Repeats are few or missing, and single values can be far off.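 The strains were three CDC resistance-bank clinical C. auris isolates from clades III, IV and I, cultured in RPMI-1640 at 35°C. Growth was background-corrected OD600 versus vehicle-only wells on the same plate. A hit needed >50% inhibition in two or more strains plus a plate-corrected B-score exceeding 0.1.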
Experiments:
Assay in all cases: growth relative to vehicle control (OD600 ratio) (fraction); higher = less inhibition
Settings in all cases: 24 h
C. auris AR-384 = test system: C. auris AR-384
C. auris AR-386 = test system: C. auris AR-386
C. auris AR-387 = test system: C. auris AR-387

| Structure (SMILES) | growth (C. auris AR-384; 1 µM) | growth (C. auris AR-384; 10 µM) | growth (C. auris AR-386; 1 µM) | growth (C. auris AR-386; 10 µM) | growth (C. auris AR-387; 1 µM) | growth (C. auris AR-387; 10 µM) |
| --- | --- | --- | --- | --- | --- | --- |
| CN[C@H]1CC[C@@H](c2ccc(Cl)c(Cl)c2)c2ccccc21 [Sertraline HCl] | 0.86 | 0.82 | 0.79 | 0.86 | 0.86 | 0.69 |
| CS(=O)(=O)c1ccc(C2=C(c3ccccc3)C(=O)OC2)cc1 [Rofecoxib] | 1.06 | 0.89 | 1.13 | 1.43 | 1.27 | 1.19 |
| c1ccc(-c2ccc(C(c3ccccc3)n3ccnc3)cc2)cc1 (configuration not stated) [Bifonazole] | 0.61 | 0.6 | 0.85 | 0.48 | 0.4 | 0.22 |
| CC(C)Nc1cc(-c2c[nH]c(C(=O)N[C@H](CO)c3cccc(Cl)c3)c2)c(Cl)cn1 | 0.95 | 0.97 | 0.67 | 0.65 | 0.81 | 0.76 |
| NC(=O)c1ncn([C@@H]2O[C@H](CO)[C@@H](O)[C@H]2O)n1 [Ribavirin] | 0.82 | 0.72 | 0.74 | 0.53 | 0.75 | 0.7 |
| CCN(CC)CCOC(=O)C1(C2CCCCC2)CCCCC1 [Dicyclomine HCl] | 1.13 | 1.36 | 1.1 | 1.21 | 0.78 | 1.26 |
| CNCC[C@@H](Oc1ccccc1C)c1ccccc1 [Atomoxetine HCl] | 1.02 | 0.89 | 0.59 | 0.63 | 0.64 | 0.95 |
| Cc1ncc([N+](=O)[O-])n1CCO [Metronidazole] | 1.27 | 0.98 | 1 | 1.02 | 0.82 | 0.71 |
| CCc1nc(N)nc(N)c1-c1ccc(Cl)cc1 [Pyrimethamine] | 0.73 | 0.76 | 0.76 | 0.9 | 0.9 | 0.89 |
| CNC1CCCN(c2c(F)cc3c(=O)c(C(=O)O)cn(C4CC4)c3c2OC)C1 (configuration not stated) [Balofloxacin] | 0.96 | 0.88 | 0.9 | 0.8 | 1.02 | 0.84 |
| COCCCN1CCC(NC(=O)c2cc(Cl)c(N)c3c2OCC3)CC1 [Prucalopride] | 1.43 | 1.37 | 0.99 | 1.24 | 1.2 | 1.05 |
| Cc1ccc(Nc2nccc(N(C)c3ccc4c(C)n(C)nc4c3)n2)cc1S(N)(=O)=O [Pazopanib] | 1.3 | 1.34 | 1.1 | 0.98 | 0.84 | 1.1 |
| C(=C\c1ccccc1)/CN1CCN(C(c2ccccc2)c2ccccc2)CC1 [Cinnarizine] | 1 | 0.77 | 0.77 | 0.71 | 0.6 | 0.84 |
| CCOC(=O)c1ccc(OC(=O)CCCCCNC(=N)N)cc1 [Gabexate Mesylate] | 0.84 | 0.95 | 1.03 | 0.99 | 1.14 | 1 |
| CC(C)C[C@H](NC(=O)[C@@H](NC(=O)c1cccc(-c2ccccc2)n1)[C@@H](C)O)B(O)O | 0.97 | 0.77 | 1.07 | 1.2 | 0.83 | 1.01 |
| CNC(=O)[C@H](Cc1c[nH]c2ccccc12)NC(=O)[C@@H](CC(=O)NO)CC(C)C [Ilomastat (GM6001, Galardin)] | 1.05 | 1.24 | 0.98 | 1.02 | 0.84 | 0.75 |
| C[C@H](NC(=O)[C@@H](Cc1ccc2ccccc2c1)NC(=O)[C@@H](C)N)C(=O)N[C@@H](Cc1c[nH]c2ccccc12)C(=O)N[C@H](Cc1ccccc1)C(=O)N[C@@H](CCCCN)C(N)=O | 0.58 | 0.36 | 0.78 | 0.83 | 0.67 | 0.61 |
| CCN(CC)CCOc1ccc(C(=C(Cl)c2ccccc2)c2ccccc2)cc1 [Clomifene citrate] | 0.97 | 0.85 | 0.98 | 0.69 | 0.65 | 0.98 |
| CCc1cc(/C(C)=N/OCc2ccc(C3CCCCC3)c(C(F)(F)F)c2)ccc1CN1CC(C(=O)O)C1 [BAF312 (Siponimod)] | 0.94 | 0.82 | 0.68 | 0.75 | 0.63 | 0.96 |
| Cc1cccc(N(C)C(=S)Oc2ccc3ccccc3c2)c1 [Tolnaftate] | 0.74 | 0.53 | 0.76 | 0.68 | 0.66 | 0.67 |
| COC(c1ccccc1)(c1ccccc1)[C@H](Oc1nc(C)cc(C)n1)C(=O)O [Ambrisentan] | 0.82 | 1.01 | 1.04 | 1.15 | 0.7 | 0.76 |
| O=c1ccc2ccc(OCCCCN3CCN(c4cccc5sccc45)CC3)cc2[nH]1 [Brexpiprazole] | 0.93 | 0.95 | 0.71 | 0.93 | 0.97 | 1.15 |
| CC(=O)[C@H]1CC[C@H]2[C@@H]3C=CC4=CC(=O)CC[C@@]4(C)[C@@H]3CC[C@]12C [Dydrogesterone] | 0.85 | 0.95 | 0.91 | 0.93 | 1.12 | 1 |
| COc1cc2c(Oc3ccc(NC(=O)C4(C(=O)Nc5ccc(F)cc5)CC4)cc3F)ccnc2cc1OCCCN1CCOCC1 | 1.06 | 1.29 | 1.22 | 0.99 | 1.11 | 1.29 |
| CCC(=O)OCC(=O)[C@@]1(OC(=O)CC)[C@@H](C)C[C@H]2[C@@H]3CCC4=CC(=O)C=C[C@]4(C)[C@@]3(Cl)[C@@H](O)C[C@@]21C [Beclomethasone dipropionate] | 1.03 | 0.69 | 0.96 | 0.86 | 0.75 | 0.51 |
| Cc1ccc(-c2cc(C(F)(F)F)nn2-c2ccc(S(N)(=O)=O)cc2)cc1 [Celecoxib] | 0.95 | 0.53 | 0.66 | 0.81 | 0.93 | 0.73 |
| COc1c2occc2cc2ccc(=O)oc12 [Methoxsalen] | 0.86 | 0.59 | 1.04 | 0.96 | 0.82 | 1.06 |

Taken from the entries so far, six compounds:

| Structure (SMILES) | growth (C. auris AR-384; 1 µM) | growth (C. auris AR-384; 10 µM) | growth (C. auris AR-386; 1 µM) | growth (C. auris AR-386; 10 µM) | growth (C. auris AR-387; 1 µM) | growth (C. auris AR-387; 10 µM) |
| --- | --- | --- | --- | --- | --- | --- |
| CC(C)Nc1cc(-c2c[nH]c(C(=O)N[C@H](CO)c3cccc(Cl)c3)c2)c(Cl)cn1 | 0.95 | 0.97 | 0.67 | 0.65 | 0.81 | 0.76 |
| NC(=O)c1ncn([C@@H]2O[C@H](CO)[C@@H](O)[C@H]2O)n1 [Ribavirin] | 0.82 | 0.72 | 0.74 | 0.53 | 0.75 | 0.7 |
| CCN(CC)CCOC(=O)C1(C2CCCCC2)CCCCC1 [Dicyclomine HCl] | 1.13 | 1.36 | 1.1 | 1.21 | 0.78 | 1.26 |
| CNCC[C@@H](Oc1ccccc1C)c1ccccc1 [Atomoxetine HCl] | 1.02 | 0.89 | 0.59 | 0.63 | 0.64 | 0.95 |
| Cc1ncc([N+](=O)[O-])n1CCO [Metronidazole] | 1.27 | 0.98 | 1 | 1.02 | 0.82 | 0.71 |
| CCc1nc(N)nc(N)c1-c1ccc(Cl)cc1 [Pyrimethamine] | 0.73 | 0.76 | 0.76 | 0.9 | 0.9 | 0.89 |
